Out of some 220,000 compounds screened, about 770 (0.35%) were called active. The shares of active, inactive and inconclusive entries below differ from those in the screen. Cut-off read from the data, not from the text of the source: active = binding response below about 49% or above about 150%; inconclusive = no clear call, values can overlap the other calls; inactive = in between.
Each compound was assayed against Guanine nucleotide-binding protein G(o) subunit alpha (Homo sapiens) (UniProt P09471) (assay: RGS7-Galphao binding modulators, primary screen, biochemical, multiplexed bead flow cytometry (AID 1439;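 note: fluorescent Galphao held in activated GDP-AlF4 state binding bead-coupled RGS7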)). Conditions: at 10 µM, actives lie on both sides.

Amino acid sequences for entries named in this document (tags omitted).
UniProt P09471, whole entry, looked up: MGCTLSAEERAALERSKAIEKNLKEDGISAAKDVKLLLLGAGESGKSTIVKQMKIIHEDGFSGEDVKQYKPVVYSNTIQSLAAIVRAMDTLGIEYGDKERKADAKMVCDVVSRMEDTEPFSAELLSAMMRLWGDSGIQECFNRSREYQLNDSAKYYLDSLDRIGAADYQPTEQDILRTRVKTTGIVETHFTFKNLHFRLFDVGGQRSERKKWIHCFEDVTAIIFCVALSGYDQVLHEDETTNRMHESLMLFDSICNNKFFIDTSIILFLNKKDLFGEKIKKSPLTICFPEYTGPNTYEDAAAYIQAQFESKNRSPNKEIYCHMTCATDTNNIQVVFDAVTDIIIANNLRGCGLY

| Structure (SMILES) | binding response (% of control) |
| --- | --- |
| COCCn1c(SCC(=O)N2CC(=O)Nc3ccccc32)nc2ccccc21 | inactive: 102% |
| Cc1cc(C)n(C(=O)c2cccc(S(=O)(=O)N3CCCCC3)c2)n1 | inconclusive: 95.7% |
| O=C1C2C3CCC(C3)C2C(=O)N1Cc1ccccc1 (stereo unspecified) | inactive: 99.5% |
| Cn1cc(S(=O)(=O)Nc2ccc(OC(F)(F)F)cc2)c(=O)n(C)c1=O | inconclusive: 53.9% |
| COC(C[C@H]1O[C@H]1[C@H](O)[C@@H](C)OCc1ccccc1)OC | inconclusive: 110% |
| C=CCNc1sc(C(=O)c2ccc(Br)s2)c(N)c1C#N | inactive: 106% |
| COCCOC(=O)C(CC(=O)O)NCc1ccco1 (stereo unspecified) | inconclusive: 141% |
| CC1(OC(=O)c2cccs2)C(=O)C=C2C=C3CCCN3C=C2C1=O (stereo unspecified) | inconclusive: 73% |
| CCN(CC)CCNC(=O)c1ccccn1 | inactive: 99.2% |
| CCO[C@H]1OC(C(=O)NCc2nc3ccccc3[nH]2)=C[C@@H](C)[C@@H]1CCCO | inactive: 102% |
| Cc1ccc(-c2sc(C(=O)NN)c(C)c2C#N)cc1 | inconclusive: 82.5% |
| COc1ccc(C(Nc2ccc(S(=O)(=O)NCC3CCCO3)cc2)C(=O)NC(C)(C)C)cc1OC (stereo unspecified) | inactive: 106% |
| Cc1ccc(S(=O)(=O)/C(C#N)=C/c2c(N3CCOCC3)nc3c(C)cccn3c2=O)cc1 | inconclusive: -48.8% |
| Cc1cc(Cl)ccc1Oc1ncnc2onc(C)c12 | inconclusive: 99.4% |
| Cc1cccnc1NC(=O)C(C)N1C(=O)c2ccccc2C1=O (stereo unspecified) | inconclusive: 98.6% |
| Cc1cc(Nc2cc(Cl)cc(Cl)c2)nc(N)n1 | inconclusive: 96.8% |
| COC(=O)c1c(-c2c(Cl)cccc2Cl)noc1NC(=O)NN1CCCCC1 | inconclusive: 80.5% |
| COc1cc(NC(=O)N[C@@H](CCSC)C(=O)O)cc(OC)c1 | inconclusive: 43.5% |
| CCOc1ccc(CCNC(=O)C(C)n2nc(C)n3c(cc4occc43)c2=O)cc1OCC (stereo unspecified) | inactive: 96.9% |
| Cc1ccc(NC(=S)NNC(C)(C)C)cc1 | inconclusive: 169% |
| CC(C(=O)Nc1ccncc1)(c1ccccc1)c1ccccc1 | inactive: 101% |
| Cc1cccc(NC(=O)C2CCCN2S(=O)(=O)c2cccc3cccnc23)c1 (stereo unspecified) | inactive: 98.3% |
| CN(Cc1ccccc1)C(=S)Nc1ccc2nc3n(c(=O)c2c1)CCCCC3 | inconclusive: 107% |

A second format for 2 compounds above:
Structure (SMILES) | binding response (% of control)
COc1ccc(C(Nc2ccc(S(=O)(=O)NCC3CCCO3)cc2)C(=O)NC(C)(C)C)cc1OC (stereo unspecified) | inactive: 106%
Cc1ccc(S(=O)(=O)/C(C#N)=C/c2c(N3CCOCC3)nc3c(C)cccn3c2=O)cc1 | inconclusive: -48.8%

Additional compounds.

| Structure (SMILES) | binding response (% of control) |
| --- | --- |
| CCN(CC)c1ccc2cc(/C(N)=N/NC(=O)c3cccs3)c(=O)oc2c1 | inconclusive: 119% |
| COc1cc2[nH]c(C(=O)NN)c(N)c2cc1OC | inconclusive: 90.9% |
| COc1ccc(OCC(O)CNC(=O)Nc2ccc(C(C)(C)C)cc2)cc1 (stereo unspecified) | inconclusive: 83.3% |
| Cc1ccsc1/C=C/C(=O)O | inconclusive: 100% |
| COC(=O)[C@H](Cc1ccccc1)NC(=O)NCCc1ccc(F)cc1 | inconclusive: 110% |
| Cn1nc([N+](=O)[O-])nc1Oc1ccccc1C(=O)N1CCOCC1 | inconclusive: 115% |
| COc1ccc(S(=O)(=O)NCc2cc(-c3ccccc3Cl)no2)cc1 | inactive: 106% |
| O=C(CCN1CCN(c2ccccc2)CC1)N/N=C/c1ccccc1O | inconclusive: 95.7% |
| CCCCC[n+]1ccn(C2=C([O-])c3ccccc3C(=O)/C2=N\S(=O)(=O)c2ccc(Br)cc2)c1 | inconclusive: 102% |
| CCCNC(=O)Nc1ccc(C)cc1C | inconclusive: 94.5% |
| S=c1[nH]c2cc(-c3ccccc3)ccc2o1 | inconclusive: 96.8% |
| CC(C)Cn1nc(NC(=O)c2ccco2)c2cc3ccccc3nc21 | inconclusive: 105% |
| O=C(NCc1ccc2c3c(cccc13)C(=O)N2)c1cccs1 | inconclusive: 97.3% |
| COc1ccccc1NS(=O)(=O)c1ccc(O)c(C(=O)OCC(=O)c2ccc(Cl)cc2Cl)c1 | inconclusive: 99.5% |
| Cc1cc2c(NC(=O)CCCC(=O)O)cccc2nn1 | inconclusive: 81.1% |
| CCC(=O)Nc1nc(OC)cc(OC)n1 | inactive: 99.2% |
| O=C(O)c1ccccc1C(=O)NCCc1c(C(=O)O)[nH]c2ccc(Cl)cc12 | inconclusive: 62.5% |
| CCc1ccc(NC(=O)Cn2ncc3c4ccccc4n(C)c3c2=O)cc1 | inconclusive: 108% |
| O=C(CCn1ccnc1)Nc1nc2ccccc2[nH]1 | inconclusive: 86% |
| N#C/C(C(=S)Nc1ccccc1)=C1/NN=C(N2CCOCC2)N1c1ccccc1 | inactive: 97.6% |
| O=C(NNC(=O)c1c(F)cccc1F)c1ccccc1OC(F)(F)F | inconclusive: 95% |
| Cc1nc(NC(=O)C(C)Oc2cccc(Cl)c2)sc1C(=O)N(C)C (stereo unspecified) | inactive: 93.9% |
| COC(=O)c1ccc(OC(=O)c2ccc(OC)cc2)c(OC)c1 | inactive: 91.3% |
